In US20060257388A1, “Drug delivery systems for stabilized formulations of alpha adrenergic receptor antagonists and the uses thereof” (priority 2005, published 2006):
Structures can show the parent of a compound that is named as a salt. At least one read-out could not be matched to a standard name with certainty.

Test: Effect of additives on stability, 60° C. (HPLC)
Assay type: physicochemical
Conditions: sodium metabisulfite, NaCl, glycerol, polypropylene glycol and niacinamide, compared to the no-additive control
Description: The drug is monitored at a detection wavelength of 232 nm.
The additives in this study are selected from five groups of injectable excipients namely, tonicity modifiers (NaCl and d-mannitol), metal chelators (EDTA), antioxidants (sodium metabisulfite), complexing agents α-cyclodextrin and niacinamide) and solvents (glycerol and polypropylene glycol). A tonicity modifier is required for adjusting the phentolamine mesylate solution to isotonic. […] Complexing agents were applied in the hope that a possible formation of an inclusion complex (by α-cyclodextrin) or stacking complex (by niacinamide) with phentolamine would modify the rate of hydrolytic degradation of the drug substance. Solvents were added to reduce the dielectric constant of the vehicle and were intended to slow the rate of degradation due to solvent polarity.
The pH value of the solutions was readjusted to pH 3.5, as required. […]
All samples were placed in 10 ml glass serum vials, stoppered with rubber closures with an inert coating (Dalkyo Flurotec by WEST Pharmaceutical), and sealed with flip-top caps after sampling. Vials were placed at 60° C. after the weights were recorded. […]

Cc1ccc(N(CC2=NCCN2)c2cccc(O)c2)cc1 [Phentolamine Mesylate]
impact of additives on recovery (in words): negative impact on the recovery
